In patent publication US20250375417A1, “OREXIN RECEPTOR 2 (OX2R) AGONIST FOR USE IN NARCOLEPSY TYPE 1 (NT1)” (TAKEDA PHARMACEUTICAL COMPANY LIMITED, priority 2024, published 2025):

Tested on: participants with NT1
Assay: Treatment Satisfaction Questionnaire for Medication (TSQM), Phase 2 NT1 trial
Assay type: in vivo, human
[1] = Week 8, range across Compound A doses

Q: What does the source list for `CCS(=O)(=O)N[C@@H]1[C@H](Cc2cccc(-c3cc(F)cc(F)c3)c2F)N(C(=O)C(C)(C)O)CC1(F)F` [Compound A, N-{(2S,3R)-4,4-difluoro-1-(2-hydroxy-2-methylpropanoyl)-2-[(2,3′,5′-trifluoro[1,1′-biphenyl]-3-yl)methyl]pyrrolidin-3-yl}ethanesulfonamide]?
A: TSQM satisfaction with side-effects score (Week 8, 7 mg-dose): 85.9; TSQM satisfaction with side-effects score (Week 8, across Compound A treatment arms (other than 7 mg)): 92.4-96.4; LS mean TSQM effectiveness domain score [1]: 67.7-80.5; LS mean TSQM global satisfaction domain score [1]: 71.0-83.7; TSQM convenience domain score [1]: 70.9-74.6
